Experimental data: PubChem BioAssay AID1259254 (NCATS, 2017)
The whole screen tested about 59,000 reagents; below is a random part of them. About 1,550 of them (2.6%) count as active. 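G2 share is only a proxy for re-replication; each gene was hit by three separate siRNAs, and active genes were retested.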 The numbers tell different reagents against one gene apart. Further read-outs or replicates are left out here. Reagent sequences are not shown. Not given: the amount of reagent.

- Test: 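Gene knock-downs that lead to re-replication, shown by excess G2 DNA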 (primary screen)
- System: human HCT116 colorectal cancer cells
- Reagent: single siRNA against human genes
- Time to read-out: 3 days
- Detection: 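Imaged Hoechst DNA stain sorts each cell into a cycle phase by DNA amount; per plate, G2 fraction set to 0% for non-targeting and 100% for GMNN siRNA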
- Scale: G2 robust z-score and G2 cells, % of GMNN control: higher = more G2 cells, more excess DNA replication
- Rule for the call: 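An siRNA counts as active if its G2 robust z-score lies at least 5 MADs above the screen median; here such calls match roughly 38% of GMNN control or more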

The opening 3 records, to show the layout:
PAOX (polyamine oxidase) #1
- G2 robust z-score: 0.623
- G2 cells, % of GMNN control: 7.35
- outcome: inactive

PAOX (polyamine oxidase) #2
- G2 robust z-score: 1.13
- G2 cells, % of GMNN control: 10.9
- outcome: inactive

PAOX (polyamine oxidase) #3
- G2 robust z-score: -0.26
- G2 cells, % of GMNN control: 1.14
- outcome: inactive

The listing, from the start:
PAOX (polyamine oxidase) #1
- G2 robust z-score: 0.623
- G2 cells, % of GMNN control: 7.35
- outcome: inactive

PAOX (polyamine oxidase) #2
- G2 robust z-score: 1.13
- G2 cells, % of GMNN control: 10.9
- outcome: inactive

PAOX (polyamine oxidase) #3
- G2 robust z-score: -0.26
- G2 cells, % of GMNN control: 1.14
- outcome: inactive

RAP2B (RAP2B, member of RAS oncogene family) #1
- G2 robust z-score: -0.578
- G2 cells, % of GMNN control: -1.1
- outcome: inactive

RAP2B (RAP2B, member of RAS oncogene family) #2
- G2 robust z-score: -0.119
- G2 cells, % of GMNN control: 2.13
- outcome: inactive

RAP2B (RAP2B, member of RAS oncogene family) #3
- G2 robust z-score: 0.297
- G2 cells, % of GMNN control: 5.06
- outcome: inactive

TAF1L (TATA-box binding protein associated factor 1 like) #1
- G2 robust z-score: -1.95
- G2 cells, % of GMNN control: -10.8
- outcome: inactive

TAF1L (TATA-box binding protein associated factor 1 like) #2
- G2 robust z-score: -1.36
- G2 cells, % of GMNN control: -6.63
- outcome: inactive

TAF1L (TATA-box binding protein associated factor 1 like) #3
- G2 robust z-score: -0.799
- G2 cells, % of GMNN control: -2.65
- outcome: inactive

BECN1 (beclin 1) #1
- G2 robust z-score: 0.855
- G2 cells, % of GMNN control: 8.98
- outcome: inactive

BECN1 (beclin 1) #2
- G2 robust z-score: 1.33
- G2 cells, % of GMNN control: 12.3
- outcome: inactive

BECN1 (beclin 1) #3
- G2 robust z-score: 1.53
- G2 cells, % of GMNN control: 13.8
- outcome: inactive

ZFP14 (ZFP14 zinc finger protein) #1
- G2 robust z-score: 0.481
- G2 cells, % of GMNN control: 6.35
- outcome: inactive

ZFP14 (ZFP14 zinc finger protein) #2
- G2 robust z-score: -1.19
- G2 cells, % of GMNN control: -5.41
- outcome: inactive

ZFP14 (ZFP14 zinc finger protein) #3
- G2 robust z-score: 0.188
- G2 cells, % of GMNN control: 4.29
- outcome: inactive

NFATC3 (nuclear factor of activated T cells 3) #1
- G2 robust z-score: -0.327
- G2 cells, % of GMNN control: 0.669
- outcome: inactive

NFATC3 (nuclear factor of activated T cells 3) #2
- G2 robust z-score: 5.39
- G2 cells, % of GMNN control: 40.9
- outcome: active

NFATC3 (nuclear factor of activated T cells 3) #3
- G2 robust z-score: 2.93
- G2 cells, % of GMNN control: 23.6
- outcome: inactive

RPL32 (ribosomal protein L32) #1
- G2 robust z-score: 1.4
- G2 cells, % of GMNN control: 12.8
- outcome: inactive

RPL32 (ribosomal protein L32) #2
- G2 robust z-score: 3.04
- G2 cells, % of GMNN control: 24.4
- outcome: inactive

RPL32 (ribosomal protein L32) #3
- G2 robust z-score: -0.705
- G2 cells, % of GMNN control: -1.99
- outcome: inactive

SLC2A12 #1
- G2 robust z-score: 2.8
- G2 cells, % of GMNN control: 22.7
- outcome: inactive

SLC2A12 #2
- G2 robust z-score: -0.204
- G2 cells, % of GMNN control: 1.53
- outcome: inactive

SLC2A12 #3
- G2 robust z-score: -0.737
- G2 cells, % of GMNN control: -2.22
- outcome: inactive
